According to US20110256127A1:
Results are given in words; binding and its absence hold for the method and conditions named. Some entries that bind do so weakly or less than the wild type.

Sequences of proteins named here, by UniProt entry; tags and fusion partners are left off. A change or cut given only in a name is not applied to a line headed by its entry.
UniProt O75581: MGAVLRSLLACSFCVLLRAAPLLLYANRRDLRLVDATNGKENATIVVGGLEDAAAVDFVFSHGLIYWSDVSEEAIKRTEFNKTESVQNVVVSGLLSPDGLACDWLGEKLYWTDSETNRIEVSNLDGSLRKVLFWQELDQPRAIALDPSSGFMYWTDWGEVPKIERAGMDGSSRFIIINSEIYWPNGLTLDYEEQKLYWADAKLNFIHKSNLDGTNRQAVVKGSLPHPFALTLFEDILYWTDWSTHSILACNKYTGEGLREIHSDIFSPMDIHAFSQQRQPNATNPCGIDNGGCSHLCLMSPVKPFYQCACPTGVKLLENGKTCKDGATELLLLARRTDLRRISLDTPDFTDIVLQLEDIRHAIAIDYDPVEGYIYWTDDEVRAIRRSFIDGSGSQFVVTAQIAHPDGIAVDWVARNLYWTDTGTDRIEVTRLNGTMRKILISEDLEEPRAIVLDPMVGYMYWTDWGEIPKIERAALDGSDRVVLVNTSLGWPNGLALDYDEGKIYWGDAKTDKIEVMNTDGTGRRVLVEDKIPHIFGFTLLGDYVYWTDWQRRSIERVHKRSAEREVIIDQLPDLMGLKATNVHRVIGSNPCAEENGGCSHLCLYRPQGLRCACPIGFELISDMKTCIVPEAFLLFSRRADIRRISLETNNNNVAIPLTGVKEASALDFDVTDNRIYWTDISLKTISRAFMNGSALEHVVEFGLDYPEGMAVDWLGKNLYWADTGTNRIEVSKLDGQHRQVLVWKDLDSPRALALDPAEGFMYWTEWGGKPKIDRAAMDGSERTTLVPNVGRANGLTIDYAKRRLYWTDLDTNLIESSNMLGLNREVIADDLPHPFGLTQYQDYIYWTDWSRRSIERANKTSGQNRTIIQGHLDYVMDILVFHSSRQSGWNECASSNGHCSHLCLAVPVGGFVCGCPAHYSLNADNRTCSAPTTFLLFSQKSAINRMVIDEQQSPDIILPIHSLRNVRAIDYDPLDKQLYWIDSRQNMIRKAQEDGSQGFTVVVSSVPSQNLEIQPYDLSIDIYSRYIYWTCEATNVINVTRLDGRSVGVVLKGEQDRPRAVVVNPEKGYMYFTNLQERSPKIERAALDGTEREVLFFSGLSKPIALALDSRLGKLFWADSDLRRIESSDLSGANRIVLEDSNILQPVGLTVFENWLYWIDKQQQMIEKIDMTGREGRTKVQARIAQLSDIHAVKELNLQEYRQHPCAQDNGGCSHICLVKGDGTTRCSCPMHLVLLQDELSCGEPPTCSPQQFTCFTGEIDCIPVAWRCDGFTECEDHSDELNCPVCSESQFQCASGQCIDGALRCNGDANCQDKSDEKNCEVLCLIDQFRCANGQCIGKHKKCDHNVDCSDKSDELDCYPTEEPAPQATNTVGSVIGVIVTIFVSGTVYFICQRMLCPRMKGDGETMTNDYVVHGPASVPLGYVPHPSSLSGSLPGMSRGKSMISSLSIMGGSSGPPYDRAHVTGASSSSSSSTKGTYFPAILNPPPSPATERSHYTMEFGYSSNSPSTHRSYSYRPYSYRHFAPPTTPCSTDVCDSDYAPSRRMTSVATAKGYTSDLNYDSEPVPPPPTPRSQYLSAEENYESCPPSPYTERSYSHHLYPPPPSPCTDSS

Biological target: LRP6.E1-E4 protein (Homo sapiens (Human)) (UniProt O75581)
Assay: biolayer interferometry, biotinylated LRP6 E1-E4 on streptavidin biosensors; Wnt9b at 200 nM; association then dissociation phase

B1: Wnt9b (ligand, mouse, UniProt O35468 24-359, looked up)
chain: AAYFGLTGREVLTPFPGLGTAAAPAQAGAHLKQCDLLKLSRRQKQLCRREPGLAETLRDAAHLGLLECQFQFRQERWNCSLEGRTGLLQRGFKETAFLYAVSAAALTHALARACSAGRMERCTCDDSPGLESRQAWQWGVCGDNLKYSTKFLSNFLGPKRGSKDLRARADAHNTHVGIKAVKSGLRTTCKCHGVSGSCAVRTCWKQLSPFRETGQVLKLRYDTAVKVSSATNEALGRLELWAPAKPGGPAKGLAPRPGDLVYMEDSPSFCRPSKYSPGTAGRVCSRDSSCSSLCCGRGYDTQSRMVVFSCHCQVQWCCYVECQQCAQQELVYTCKR
  binding: binds
